Results are given in words; binding and its absence hold for the method and conditions named. For part of these data: Binding seen in cells or lysates may run through a third protein. Some binding calls cover weakened binding; strength is not graded here. Sequences can lack the tags named with a protein. One block for each binder: values may come before it.
Legend:
[1] = biological target: T1, myc-tagged Polδ (S. pombe) (UniProt P30316); test: co-IP
T1 sequence: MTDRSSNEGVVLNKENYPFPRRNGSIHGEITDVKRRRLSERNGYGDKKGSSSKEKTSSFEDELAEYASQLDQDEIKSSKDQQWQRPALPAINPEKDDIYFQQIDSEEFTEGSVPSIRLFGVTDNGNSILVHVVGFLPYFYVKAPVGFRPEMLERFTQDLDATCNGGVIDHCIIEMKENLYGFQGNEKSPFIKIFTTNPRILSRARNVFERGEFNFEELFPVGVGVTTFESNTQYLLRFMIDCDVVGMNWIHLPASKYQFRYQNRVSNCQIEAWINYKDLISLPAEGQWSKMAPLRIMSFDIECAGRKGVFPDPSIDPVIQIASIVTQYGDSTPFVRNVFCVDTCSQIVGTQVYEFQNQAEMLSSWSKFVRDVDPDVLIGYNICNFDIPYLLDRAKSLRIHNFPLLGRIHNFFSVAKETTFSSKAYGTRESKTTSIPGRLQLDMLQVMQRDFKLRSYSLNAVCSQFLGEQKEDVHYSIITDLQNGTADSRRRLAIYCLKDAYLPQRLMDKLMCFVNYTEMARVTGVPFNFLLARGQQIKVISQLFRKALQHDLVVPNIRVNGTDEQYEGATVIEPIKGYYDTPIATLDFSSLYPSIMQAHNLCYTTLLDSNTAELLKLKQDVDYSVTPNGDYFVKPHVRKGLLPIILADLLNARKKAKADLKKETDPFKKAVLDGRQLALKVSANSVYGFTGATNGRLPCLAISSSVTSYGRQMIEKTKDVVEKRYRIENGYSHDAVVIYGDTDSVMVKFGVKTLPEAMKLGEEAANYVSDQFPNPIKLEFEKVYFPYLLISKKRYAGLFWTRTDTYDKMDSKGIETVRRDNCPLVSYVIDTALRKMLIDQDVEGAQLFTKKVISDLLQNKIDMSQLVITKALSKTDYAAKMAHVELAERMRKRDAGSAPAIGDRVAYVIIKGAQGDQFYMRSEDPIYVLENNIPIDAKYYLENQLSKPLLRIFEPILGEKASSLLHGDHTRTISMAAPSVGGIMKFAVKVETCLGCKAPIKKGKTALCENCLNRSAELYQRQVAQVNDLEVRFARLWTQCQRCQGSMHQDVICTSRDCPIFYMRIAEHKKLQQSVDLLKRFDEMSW

Protein sequences, listed by entry. Tags and fused reporters are not part of them.
UniProt O60016: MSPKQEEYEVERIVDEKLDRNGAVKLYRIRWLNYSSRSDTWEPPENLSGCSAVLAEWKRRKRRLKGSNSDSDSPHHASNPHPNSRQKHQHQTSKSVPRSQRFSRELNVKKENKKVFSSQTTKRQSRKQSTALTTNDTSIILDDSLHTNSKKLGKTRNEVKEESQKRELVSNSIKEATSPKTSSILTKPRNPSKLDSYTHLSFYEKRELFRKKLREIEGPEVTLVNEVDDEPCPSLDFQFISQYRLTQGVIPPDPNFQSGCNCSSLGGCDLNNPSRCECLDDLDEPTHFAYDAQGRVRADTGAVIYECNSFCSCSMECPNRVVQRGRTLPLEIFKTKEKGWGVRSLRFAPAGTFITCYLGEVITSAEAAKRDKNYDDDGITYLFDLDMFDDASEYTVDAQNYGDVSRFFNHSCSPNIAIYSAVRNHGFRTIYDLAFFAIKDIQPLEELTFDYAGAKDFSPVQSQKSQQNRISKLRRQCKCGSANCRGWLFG

[2] = biological target: GST-tagged Clr4 (S. pombe) (UniProt O60016); test: pull-down
[3] = biological target: Clr4 (two-hybrid fusion) (S. pombe) (UniProt O60016); test: two-hybrid

binding [1]: binds
B1: Swi6/HP1 (protein, UniProt P40381 1-328)
chain: MKKGGVRSYRRSSTSKRSVIDDDSEPELPSMTKEAIASHKADSGSSDNEVESDHESKSSSKKLKENAKEEEGGEEEEEDEYVVEKVLKHRMARKGGGYEYLLKWEGYDDPSDNTWSSEADCSGCKQLIEAYWNEHGGRPEPSKRKRTARPKKPEAKEPSPKSRKTDEDKHDKDSNEKIEDVNEKTIKFADKSQEEFNENGPPSGQPNGHIESDNESKSPSQKESNESEDIQIAETPSNVTPKKKPSPEVPKLPDNRELTVKQVENYDSWEDLVSSIDTIERKDDGTLEIYLTWKNGAISHHPSTITNKKCPQKMLQFYESHLTFRENE

binding [2]: binds
B2: MBP-tagged Polα (enzyme, UniProt P28040 1-1405)
chain: MRKRNAGIKPSQRFAELRALRQAGKTRASTYESKENEELYDNVSEEEYRKIVRQRLDEDDFVVDDNGAGYVDNGYDEWDQSHYSDEDDENEKGSSGRKRKKSKNVLAEPNQQIGAFFKANAIQPASRIANRKNNEKEDEFMAEILGSIDQDIPERLSTKKGNRSHTTSNAKRRSQKAASSISTTNVVSSDPKKYIPETVPSTPQPASSLPIPSSPPAALETEENVDSQPMELDEPELPVGSDAPIIDVEESIAMKPLMSHDQVDDTASLSKATISQQPLSPMTPLSSELDVSAFSEINSKIKNVDVPASSYSSPISKVSPSDVTEEDGSLFFFWMDYTEMYGSLCLFGKVYDKATKQYVSCFLKVDGIMRSLYFLPRPSSSSVSEDSIAAQTKDVYDEVANLLSKRGVKEWKSRVSKYKYAFELEDVPRTADYLEVIYSYSYPALPTDLTGSSFSHVFGTNTALFEQFVLSRRVMGPCWLKIQQPNFDAVKNASWCRVEIGCSSPQNISVSFEKNEITSKTPPMTVMSLAFRTLINKEQNKQEVVMISARIFENVDIEKGLPANDMPSYSFSLIRPLKQIFPNGFEKLARQHKSSIFCERSEVSLLNNFLNKVRTYDPDVYFGHDFEMCYSVLLSRLKERKIHNWSSIGRLRRSEWPRSFNRSSQQFVEKQIIAGRLMCDLSNDFGRSMIKAQSWSLSEIVLKELDIKRQDINQEKALQSWTDTAHGLLDYLVHCEIDTFFIAAVAFKIQMLQLSKNLTNIAGNSWARTLTGTRAERNEYILLHEFKKNGYIVPDKQQSIRRHAEAFGAEDGLQEESLGKKKDKYKGGLVFEPQKGLYETCILVMDFNSLYPSIIQEYNICFTTVDRSPSNSDSDDQIPDTPSASANQGIFPRLIANLVERRRQIKGLLKDNSATPTQRLQWDIQQQALKLTANSMYGCLGYTKSRFYARPLAVLITYKGREALMNTKELADQMGLQVIYGDTDSVMLNTNVTDKNHALRIGNEFKEKVNERYSKLEIDIDNVYQRMLLHAKKKYAALQLDSQGKPNLDVKGLDMKRREFCTLAKEASKFCLDQILSGELTETVIENIHSYLMDFSEKMRNGKFPANKFIIFNRLGKNPEDYPNGKTMPFVQVALKKKARGENVRVGDVIPFIIAGSDADGHPADRAYSPQEIMNTNSTLVIDYNYYLSHQILPPIERVIAPIEGTNRARLAECLGLDARKYYSHETSESSAFQRYESTLTDDQCFINVSPLLLKCPSCNATSFSLRSVKSLKETLYANTVECDCGYEYSDFTIILQFSSQLRDFINLYYEGILVCDDSSCGNRTRQMSVYGKRCCNKSCRGSVHFEYNDEQLYNQIKFLLKAVQTTTGATRNGIIRCNAINKNISRIMNKNAREFVDMGLIFSS

binding [3]: binds
B3: Polα (two-hybrid fusion) (enzyme, UniProt P28040 1-1405)
chain: B2 chain

From article doi:10.1101/2020.10.21.349183
